# Assay results reported in paper PMC7819943, “Rice protein-binding microarrays: a tool to detect cis-acting elements near promoter regions in rice”.
# The other results are listed elsewhere or left out.
# Target: T1, OsSMF1 (Oryza sativa, UniProt Q6ZLB0 1-436)
# T1 sequence: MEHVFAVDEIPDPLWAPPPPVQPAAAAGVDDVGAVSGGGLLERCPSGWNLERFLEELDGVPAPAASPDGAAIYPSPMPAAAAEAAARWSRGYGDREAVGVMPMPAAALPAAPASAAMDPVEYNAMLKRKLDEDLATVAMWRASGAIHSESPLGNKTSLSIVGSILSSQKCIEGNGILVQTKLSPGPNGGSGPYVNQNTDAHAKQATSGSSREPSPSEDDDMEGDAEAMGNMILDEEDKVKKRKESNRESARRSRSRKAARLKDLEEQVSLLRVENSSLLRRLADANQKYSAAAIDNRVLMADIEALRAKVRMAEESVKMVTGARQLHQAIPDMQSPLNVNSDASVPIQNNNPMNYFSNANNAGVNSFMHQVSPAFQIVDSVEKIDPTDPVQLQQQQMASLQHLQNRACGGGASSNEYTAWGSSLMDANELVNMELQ
# Test: protein-binding microarray (RPBM); PBS, 2% BSA, 51.3 ng/ul salmon testes DNA, 50 uM zinc acetate, 200 nM TF, 25 C, 1 h; high values mean tight binding
# Conditions: protein: recombinant; tags: N-terminal polyhistidine and DsRed monomer fusion (pET32a); chain copies: 2; label: CyDye5-dUTP incorporated in the synthesized complementary strand; 3' TTTTT single-stranded linker to array surface; dsDNA, one strand shown
# Summary of the method: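 Binding signal is reported as fluorescence intensity per feature (arbitrary units) from an Axon 4000B scanner. Incubation used 200 nM of each Ni–NTA-purified, N-terminally polyhistidine- and DsRed-fused transcription factor from E. coli BL21-CodonPlus on a double-stranded custom Agilent array for 1 h at 25 °C, with 50 µM zinc acetate in the buffer, followed by washing.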
row,Sequence,binding signal
1,GAGCACGTACACGTACTCCTCCTCCTACTACGTGATGAGTCGGAGTCACCTAGTGCAG,7260 fluorescence intensity (a.u.)
2,CAGCACCGTCATCGTCGTCGTTGTCGCGCGTCACCGTGAACGGAGTCACCTAGTGCAG,5720 fluorescence intensity (a.u.)
3,GAAGAAGAACATGGGCCGTCTCGGTTGCGTCGCGTCACGGCGGAGTCACCTAGTGCAG,6130 fluorescence intensity (a.u.)
4,AACTCTCTCTCTCCAGCTCCACCTTCTCCGAGGCCGCCATCGGAGTCACCTAGTGCAG,3210 fluorescence intensity (a.u.)
5,AGGTTTTCAAGAGCTCAGGGAATGGGGATCTGACTGTCAGCGGAGTCACCTAGTGCAG,3720 fluorescence intensity (a.u.)
6,TGAAAATTTGTACACGTAAGTAATAGATGGTACCAATAGACGGAGTCACCTAGTGCAG,5890 fluorescence intensity (a.u.)
7,AACAATCCAACAAACCAATCATCTGGACACGCTGTCTCAGCGGAGTCACCTAGTGCAG,3370 fluorescence intensity (a.u.)
8,CTCGCGCGGTCGCCTTCTTTATTTGGCTACCTCCTCCTCCCGGAGTCACCTAGTGCAG,3460 fluorescence intensity (a.u.)
9,CCACCGGACGCGCTCGTCCGCGGCCTCTCGGCGGCCACCACGGAGTCACCTAGTGCAG,3950 fluorescence intensity (a.u.)
10,ATCCCAAAATAATGTGTTCGGGTGGGCGGGCGGGAAATATCGGAGTCACCTAGTGCAG,3480 fluorescence intensity (a.u.)
11,TAATTGCACAGTCAGGAGGAAATCACGAGATGAATATTTTCGGAGTCACCTAGTGCAG,4060 fluorescence intensity (a.u.)
12,GACAACCAACCATCCGTGTGTACAGCCCTACGTATACTCGCGGAGTCACCTAGTGCAG,4080 fluorescence intensity (a.u.)
13,GCGGGGCCTCACCCCTTCTCCATGGAGGCCACGGAGGTCGCGGAGTCACCTAGTGCAG,4000 fluorescence intensity (a.u.)
14,TCGCCAGTTCCTAACGCATCGTCTTGCCAGGCCTCAATATCGGAGTCACCTAGTGCAG,3310 fluorescence intensity (a.u.)
15,GGATCAATTGCTAGTGCCAGCGTTAAGACTTTACATAGTGCGGAGTCACCTAGTGCAG,38500 fluorescence intensity (a.u.)
16,ACTTTTCTTCTGTAACTCCACAGCTACTTTACTCAACATCCGGAGTCACCTAGTGCAG,3910 fluorescence intensity (a.u.)
17,GCGCATGCCACCTAGCTAGTTATATAGGATGTTACATATGCGGAGTCACCTAGTGCAG,3410 fluorescence intensity (a.u.)
18,TCAAAGAAGAAAATGCTCCCTCCTGGGTGCAGTGATGGTTCGGAGTCACCTAGTGCAG,31800 fluorescence intensity (a.u.)
19,GAGACTTTTACACGCATTCCAGTCATCACTAGTGTAGCGGCGGAGTCACCTAGTGCAG,6000 fluorescence intensity (a.u.)
20,ACGTACGTGTGCGTATCCGACAAGTCCCACGACGTGGCAACGGAGTCACCTAGTGCAG,4960 fluorescence intensity (a.u.)
21,CCTTCAGAAGCTGTGTAAAGATTTGTGTGTGTTAGTACCACGGAGTCACCTAGTGCAG,3330 fluorescence intensity (a.u.)

# Copied from the results shown for reference:
row,Sequence,binding signal
2,CAGCACCGTCATCGTCGTCGTTGTCGCGCGTCACCGTGAACGGAGTCACCTAGTGCAG,5720 fluorescence intensity (a.u.)
3,GAAGAAGAACATGGGCCGTCTCGGTTGCGTCGCGTCACGGCGGAGTCACCTAGTGCAG,6130 fluorescence intensity (a.u.)
4,AACTCTCTCTCTCCAGCTCCACCTTCTCCGAGGCCGCCATCGGAGTCACCTAGTGCAG,3210 fluorescence intensity (a.u.)
5,AGGTTTTCAAGAGCTCAGGGAATGGGGATCTGACTGTCAGCGGAGTCACCTAGTGCAG,3720 fluorescence intensity (a.u.)
6,TGAAAATTTGTACACGTAAGTAATAGATGGTACCAATAGACGGAGTCACCTAGTGCAG,5890 fluorescence intensity (a.u.)
7,AACAATCCAACAAACCAATCATCTGGACACGCTGTCTCAGCGGAGTCACCTAGTGCAG,3370 fluorescence intensity (a.u.)
8,CTCGCGCGGTCGCCTTCTTTATTTGGCTACCTCCTCCTCCCGGAGTCACCTAGTGCAG,3460 fluorescence intensity (a.u.)
9,CCACCGGACGCGCTCGTCCGCGGCCTCTCGGCGGCCACCACGGAGTCACCTAGTGCAG,3950 fluorescence intensity (a.u.)
10,ATCCCAAAATAATGTGTTCGGGTGGGCGGGCGGGAAATATCGGAGTCACCTAGTGCAG,3480 fluorescence intensity (a.u.)

# The list continues.

row,Sequence,binding signal
1,TTTAGCTCTCGTCGATGTGGTGTTTGTTGGGTTTTCCCTTCGGAGTCACCTAGTGCAG,3670 fluorescence intensity (a.u.)
2,CTACAAGAAGCCTCTCTCTGGCCTGTGCTGCATTGGCCTCCGGAGTCACCTAGTGCAG,3150 fluorescence intensity (a.u.)
3,ATGCTAATATTGTTTTCCTTTTCAGGAGTGTTCTCATACTCGGAGTCACCTAGTGCAG,3560 fluorescence intensity (a.u.)
4,ACATATAATAATACATATAGTAATATAATTTTCAGCTTATCGGAGTCACCTAGTGCAG,3210 fluorescence intensity (a.u.)
5,TGTGTCCATGACCCGTCGTACAATTGGTTTGAAACTTGTGCGGAGTCACCTAGTGCAG,3320 fluorescence intensity (a.u.)
6,AAGAGGATCGCAATCGTGAAAACTTCGCAAGTGTTCAGAACGGAGTCACCTAGTGCAG,59100 fluorescence intensity (a.u.)
7,CTTAGCATAAGCACAATTTCCATTGCGTGTAATTATTTTGCGGAGTCACCTAGTGCAG,5530 fluorescence intensity (a.u.)
8,TATTGTGCTGACGCAGTGCAGATTATACGTAAGGCATTTTCGGAGTCACCTAGTGCAG,4220 fluorescence intensity (a.u.)
9,GCAAAGTTTGTATACACGTATGCAATGTTTGTATACATGTCGGAGTCACCTAGTGCAG,4420 fluorescence intensity (a.u.)
10,AAGCATCCTGCATTCACCTACGTCAACATGCATGCATGACCGGAGTCACCTAGTGCAG,3870 fluorescence intensity (a.u.)
11,TGAGCTGCTTTTACACGTTGCTTTATTGACACTTGTTCACCGGAGTCACCTAGTGCAG,45500 fluorescence intensity (a.u.)
12,ACTAGAATCTCACACATGACACATCCATCACATCACACACCGGAGTCACCTAGTGCAG,4690 fluorescence intensity (a.u.)
13,CTTGAAACGAACATAGCCACGTCGACGTGTTTCAAATTCCCGGAGTCACCTAGTGCAG,15100 fluorescence intensity (a.u.)
14,CGACGAGAAGGACACCTCCTCGGAAAAGGGAGGGCGTCGGCGGAGTCACCTAGTGCAG,44600 fluorescence intensity (a.u.)
15,GGTAAGCATCATACTGTTCGTTGTTGACTCAATGATCATCCGGAGTCACCTAGTGCAG,3580 fluorescence intensity (a.u.)
16,ATCGTTCTGTACCCGGGCCTCTACGTCAGCCACTTCGTCCCGGAGTCACCTAGTGCAG,9600 fluorescence intensity (a.u.)
17,TCCCTGAAGTCGATATCTGACGTCTTGTCTTGGCGTATGTCGGAGTCACCTAGTGCAG,4340 fluorescence intensity (a.u.)
18,TTGTAGCTCTACACATCATGCTATGCTAAACAACCTACTCCGGAGTCACCTAGTGCAG,3140 fluorescence intensity (a.u.)
19,GACATGGAGGCTGACGCCGCCTACGACGCCGGGTTCAACGCGGAGTCACCTAGTGCAG,4170 fluorescence intensity (a.u.)
20,GCTGGCTGCTTGCTCTACTGCAATTATTTATTGCCACCTCCGGAGTCACCTAGTGCAG,3220 fluorescence intensity (a.u.)
21,CCACTGGCGACCGCCACGTCGACCTGGCGTGGGACCTCATCGGAGTCACCTAGTGCAG,8920 fluorescence intensity (a.u.)
